Assay [1] concerns the target T1, 3xHA::mGL::FLR-4 (C. elegans) (UniProt Q9NLA1).
T1 sequence: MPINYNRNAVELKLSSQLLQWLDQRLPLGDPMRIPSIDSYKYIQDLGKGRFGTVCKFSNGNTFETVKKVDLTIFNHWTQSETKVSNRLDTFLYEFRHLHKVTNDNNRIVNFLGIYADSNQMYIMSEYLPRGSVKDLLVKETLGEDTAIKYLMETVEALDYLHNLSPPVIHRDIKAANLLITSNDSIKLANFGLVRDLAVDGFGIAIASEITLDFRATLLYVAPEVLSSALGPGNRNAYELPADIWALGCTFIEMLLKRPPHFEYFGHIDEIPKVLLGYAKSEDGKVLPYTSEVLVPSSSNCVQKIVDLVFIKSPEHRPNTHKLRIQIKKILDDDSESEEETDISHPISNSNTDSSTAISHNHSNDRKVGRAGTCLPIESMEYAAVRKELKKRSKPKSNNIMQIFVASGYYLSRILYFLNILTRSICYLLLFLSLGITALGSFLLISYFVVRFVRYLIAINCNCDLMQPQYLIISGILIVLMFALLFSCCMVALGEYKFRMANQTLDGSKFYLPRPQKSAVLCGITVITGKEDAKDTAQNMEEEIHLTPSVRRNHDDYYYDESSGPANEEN
The assay can be described thus: co-IP; lysate of approximately 50,000 day 1 adults of strain DLS781 split in 3 parts: mock IP (no antibody), anti-HA IP (3F10) or anti-FLAG IP (M2) on Protein G Dynabeads; western blot with anti-FLAG or anti-HA.

The target in assay [2] is T2, mKate2::3xFLAG::DRL-1 (C. elegans) (UniProt Q86ME2).
T2 sequence: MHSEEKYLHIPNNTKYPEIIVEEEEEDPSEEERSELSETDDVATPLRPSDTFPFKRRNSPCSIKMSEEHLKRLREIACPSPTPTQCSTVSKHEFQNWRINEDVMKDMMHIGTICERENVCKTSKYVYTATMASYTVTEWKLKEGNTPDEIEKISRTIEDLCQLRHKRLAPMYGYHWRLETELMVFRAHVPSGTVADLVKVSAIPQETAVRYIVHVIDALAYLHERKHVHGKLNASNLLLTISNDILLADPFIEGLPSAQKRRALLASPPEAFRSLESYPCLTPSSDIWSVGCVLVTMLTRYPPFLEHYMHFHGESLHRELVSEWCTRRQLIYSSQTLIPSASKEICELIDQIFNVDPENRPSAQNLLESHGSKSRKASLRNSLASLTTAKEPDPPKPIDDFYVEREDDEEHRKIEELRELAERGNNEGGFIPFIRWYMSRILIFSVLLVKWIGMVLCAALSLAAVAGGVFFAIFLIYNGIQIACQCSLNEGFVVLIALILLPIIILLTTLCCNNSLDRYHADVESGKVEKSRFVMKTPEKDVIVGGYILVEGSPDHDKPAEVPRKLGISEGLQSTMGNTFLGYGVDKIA
The description is as above.

For two molecules, binding results are on record in article PMC10566725.

No constants are given. Whether binding was seen depends on the method and setting. Binding seen in cells or lysates may run through a third protein. Some entries that bind do so weakly or less than the wild type. Where a sequence is shown, tags or fusion partners need not be part of it.

B1: mKate2::3xFLAG::DRL-1 (protein, UniProt Q86ME2 1-589)
chain: T2 sequence
On to B1, for which the binding entry in assay [1] is reported as “binds”.

B2: 3xHA::mGL::FLR-4 (protein, UniProt Q9NLA1 1-570)
chain: T1 sequence
B2: the binding entry in assay [2] is on record as “binds”.
